Common to all, as to assay: normalised response (% of control), CellTox Green; higher = less cell death (100 = DMSO, 0 = benzethonium chloride kill control)
What all share (settings): incubation time: 72 h

The subject of one assay is BT-474. As for the experimental part:
(§1)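 DSRT, 72 h incubation, CellTox Green / CellTiter-Glo readout. Signal is normalised to DMSO and benzethonium chloride controls. Value is the normalised response at the lowest tested concentration.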

For the next assay, the system named is MDA-MB-231. As for the experimental part:
as §1

For another assay, the system named is CAL-148. As for the experimental part: as §1
The next assay deals with HCC1937. As for the experimental part: as §1
Another assay has as its system HCC1599. As for the experimental part:
as §1

For another assay, the system named is CAL-120. As for the experimental part: as §1
The next assay relates to DU-4475. The method, then:
as §1

A further assay deals with Hs578T. The method, then:
as §1

Another assay has as its system MFM-223. The method, then:
as §1

The next assay relates to HDQ-P1. The method, then:
as §1

The subject of the next assay is MDA-MB-436. The method, then: as §1
In another assay the test system is CAL-85-1. As for the experimental part: as §1
The test system of another assay is HCC1143. As for the experimental part:
as §1

The subject of the next assay is MDA-MB-453. As for the experimental part:
as §1

The next assay concerns MDA-MB-468. The method, then: as §1
In a further assay the test system is BT-549. The method, then: as §1
A further assay concerns CAL-51. As for the experimental part: as §1
A further assay relates to MCF-10A. The method, then:
as §1

Most values lie at the level of the controls, where differences are scatter.

In the case of `CC(C)(C#N)c1cc(Cn2cncn2)cc(C(C)(C)C#N)c1` [Anastrozole] (1 nM), the normalised response came to 102% in the assay on BT-474; 108% in the assay with MDA-MB-231; 102% in the assay with CAL-148; 101% in the assay with HCC1937; 101% in the assay with HCC1599; 99.1% in the assay with CAL-120. Also, the normalised response was 103% in the assay with DU-4475; 111% in the assay on Hs578T; 104% in the assay on MFM-223; 97.9% in the assay on HDQ-P1; 93.5% in the assay on MDA-MB-436; 105% in the assay with CAL-85-1. Also, the normalised response stood at 117% in the assay with HCC1143; 106% in the assay on MDA-MB-453; 113% in the assay with MDA-MB-468; 110% with BT-549; 97.2% in the assay on CAL-51.

As to `CC(=O)N(O)CCCCCNC(=O)CCC(=O)N(O)CCCCCNC(=O)CCC(=O)N(O)CCCCCN` [Deferoxamine] (1 nM), the normalised response with BT-474 was determined as 97.3%; in the assay with MDA-MB-231, 96.5%; with CAL-148 it was 90.8%; with HCC1937 it was 107%; in the assay on HCC1599, 98.3%; in the assay on CAL-120, 102%. The normalised response with MCF-10A came out at 101%; in the assay with DU-4475, 98.7%; in the assay with Hs578T, 74.2%; in the assay with MFM-223, 101%; in the assay on HDQ-P1, 66.7%; in the assay on MDA-MB-436 it was 50.6%. In addition, the figures for the normalised response with CAL-85-1, with BT-549 and in the assay with CAL-51 were 115%, 96.2% and 107%, respectively.

For `Nc1ccccc1NC(=O)c1ccc(CNC(=O)OCc2cccnc2)cc1` [Entinostat] (1 nM), the normalised response with BT-474 was determined as 100%; in the assay on MDA-MB-231, 61.2%; in the assay on HCC1599, 96.9%; with CAL-120, 101%; in the assay with DU-4475 it was 98.6%; in the assay on Hs578T it was 80.1%. Also, the normalised response came out at 96.3% in the assay with MFM-223; 98.8% with HDQ-P1; 104% in the assay with CAL-85-1; 122% in the assay on HCC1143; 102% with MDA-MB-453; 89.1% in the assay with BT-549. Besides, the normalised response in the assay with CAL-51 is 71.8%.

Consider `C[C@]1(O)C[C@@H](c2nc(-c3ccc4ccc(-c5ccccc5)nc4c3)c3c(N)nccn32)C1` [Linsitinib] (1 nM), for which the normalised response was 95% in the assay on BT-474; 90.7% in the assay on MDA-MB-231; 103% with CAL-148; 93.8% in the assay on HCC1937; 93.2% in the assay with HCC1599; 95.3% with CAL-120. In addition, the normalised response worked out at 70.4% in the assay on MCF-10A; 96.7% in the assay on DU-4475; 102% in the assay on Hs578T; 102% in the assay with MFM-223; 92.2% with MDA-MB-436; 101% in the assay with CAL-85-1. In addition, the normalised response in the assay with HCC1143 worked out at 107%; with MDA-MB-453 it was 101%; with MDA-MB-468 it was 77.6%; in the assay on BT-549, 87.5%; in the assay on CAL-51 it was 105%.

Turning to `N[C@@H](Cc1ccc(N(CCCl)CCCl)cc1)C(=O)O` [Melphalan] (1.25 nM), the normalised response in the assay on BT-474 turned out to be 101%; in the assay on MDA-MB-231, 115%; with CAL-148 it was 95.2%; in the assay with HCC1937, 109%; in the assay on HCC1599 it was 112%; in the assay with CAL-120, 104%. Besides, the normalised response stood at 98% in the assay on MCF-10A; 112% in the assay on DU-4475; 97.6% in the assay with Hs578T; 102% in the assay on MFM-223; 92.2% with HDQ-P1; 106% in the assay on MDA-MB-436. For the same molecule, the normalised response in the assay with CAL-85-1 was 97.3%; in the assay on HCC1143 it was 101%; with MDA-MB-453 it was 101%; in the assay on BT-549 it was 105%; in the assay with CAL-51 it was 118%.

On to `C=CCN(/C=C1/C(=O)O[C@H](COC)[C@@]2(C)C1=C(O)C(=O)C1=C2[C@H](OC(C)=O)C[C@]2(C)C(=O)CC[C@@H]12)CC=C` [Sonolisib] (1 nM), for which the normalised response is 98.7% with BT-474; 104% with MDA-MB-231; 87.3% in the assay on CAL-148; 98.3% with HCC1937; 100% with HCC1599; 102% in the assay on CAL-120. The normalised response in the assay on MCF-10A came out at 97.6%; in the assay on DU-4475, 102%; in the assay with Hs578T, 83.8%; with MFM-223, 59.7%; with MDA-MB-436, 93.7%; in the assay with CAL-85-1 it was 97.3%. In addition, the normalised response is 90.1% in the assay on HCC1143; 111% with MDA-MB-453; 89.7% in the assay with MDA-MB-468; 92.8% in the assay on BT-549; 99.8% with CAL-51.

Consider `CC(=O)Nc1ccc(C(=O)Nc2ccccc2N)cc1` [Tacedinaline] (0.1 nM), for which the normalised response in the assay with BT-474 was determined as 98.8%; in the assay on MDA-MB-231, 93%; in the assay with CAL-148 it was 52.4%; in the assay on HCC1937 it was 103%; with HCC1599, 91.2%; with CAL-120 it was 99.7%. Also, the normalised response with MCF-10A is 93.6%; with DU-4475, 98%; in the assay on Hs578T, 83.8%; with MFM-223 it was 98.9%; in the assay on HDQ-P1, 98.7%; in the assay with MDA-MB-436, 85.7%. For the same molecule, the normalised response in the assay with CAL-85-1 is 103%; with HCC1143, 79%; in the assay on MDA-MB-453, 71.7%; with BT-549, 98.8%; with CAL-51, 113%.

With `C=CCNC1=C2C[C@@H](C)C[C@H](OC)[C@H](O)[C@@H](C)/C=C(\C)[C@H](OC(N)=O)[C@@H](OC)/C=C\C=C(/C)C(=O)NC(=CC1=O)C2=O` [Tanespimycin] (1 nM), the normalised response with BT-474 came out at 98.8%; in the assay with MDA-MB-231, 106%; in the assay on CAL-148, 104%; with HCC1937, 97.5%; in the assay on HCC1599 it was 99.4%; in the assay on CAL-120 it was 97.1%. The normalised response in the assay on MCF-10A was found to be 94.1%; in the assay with DU-4475, 98.7%; in the assay on Hs578T, 99.4%; in the assay with MFM-223, 101%; in the assay on HDQ-P1, 98%; in the assay on CAL-85-1 it was 98.2%. The normalised response in the assay with HCC1143 stood at 108%; in the assay with MDA-MB-453, 101%; with MDA-MB-468, 74.4%; in the assay with BT-549, 98.2%; in the assay on CAL-51, 109%.
